Measured values published in patent publication US20160152686A1.
No constants are given. Whether binding was seen depends on the method and setting. Some results given as binding are weak or reduced against the parent protein; the word gives no strength. Where a sequence is shown, tags or fusion partners need not be part of it.

By UniProt entry, the sequences of proteins in these tests, tags left out. Residues count along the entry.
UniProt Q8NBP7, residues 31-692: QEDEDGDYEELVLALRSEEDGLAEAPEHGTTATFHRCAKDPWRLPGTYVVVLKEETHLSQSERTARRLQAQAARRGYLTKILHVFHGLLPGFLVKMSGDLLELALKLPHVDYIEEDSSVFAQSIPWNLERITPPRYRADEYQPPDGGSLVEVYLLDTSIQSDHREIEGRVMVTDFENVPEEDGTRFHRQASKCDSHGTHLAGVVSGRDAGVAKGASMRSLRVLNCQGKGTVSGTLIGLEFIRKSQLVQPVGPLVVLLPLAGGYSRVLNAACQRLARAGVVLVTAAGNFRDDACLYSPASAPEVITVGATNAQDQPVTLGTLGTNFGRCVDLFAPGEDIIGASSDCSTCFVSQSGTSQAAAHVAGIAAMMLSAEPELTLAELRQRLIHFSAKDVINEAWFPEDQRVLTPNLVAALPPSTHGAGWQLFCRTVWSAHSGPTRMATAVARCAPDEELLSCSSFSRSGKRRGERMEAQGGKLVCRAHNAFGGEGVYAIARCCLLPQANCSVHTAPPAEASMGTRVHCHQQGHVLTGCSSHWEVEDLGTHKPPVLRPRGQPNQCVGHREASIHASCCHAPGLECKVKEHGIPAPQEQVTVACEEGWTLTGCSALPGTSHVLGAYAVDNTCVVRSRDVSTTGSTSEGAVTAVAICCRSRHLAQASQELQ

Molecular target: recombinant human PCSK9 expressed in baculovirus (human) (UniProt Q8NBP7)
Test: as shown in Example 2 (PCSK9:EGFA FRET assay)

binding: binds
B1: PCSK9 adnectin-ABD fusion protein (PCSK9 adnectin-(GS)3-ABD-His6) (designed binder)
chain: MGVSDVPRDLEVVAATPTSLLISWVPPSDDYGYYRITYGETGGNSPVQEFTVPIGKGTATISGLKPGVDYTITVYAVEFPWPHAGYYHRPISINYRTGSGSGSQHDEAVDANSLAEAKVLANRELDKYGVSDYYKNLINNAKTVEGVKALIDEILAALPHHHHHH
